# In PubChem BioAssay AID248 (DTP/NCI, 2004):
# The list shows only some results of the screen, not a fair sample: it gathers tests that were run many times, whatever their T/C, doses with no T/C, and many T/C values between a quarter and a half above the control. Other doses and runs of a compound stand elsewhere. T/C is the treated group as % of the vehicle group. Some doses have a count of surviving animals in place of a T/C: the source files T/C as zero there, which appears to mark a toxic dose or a test without result, not a measured value. Some survivor counts are full or nearly so, which does not show that the dose was tolerated: the source hardly ever lists a survival T/C far under the control, and the zero likely stands for such cases as well. Survivors were counted at the toxicity check, usually on the fifth day, unless a day is given; later deaths do not show. Schedules are NCI's codes, read here as Q, the interval in days (D) or hours (H), X, the number of doses. Some entries were tested several times; the values are given in rising order. Some schedule codes hold Z or #, which are not explained here. For survival time, the PubChem record calls one and a half times the control and up active, and a quarter to a half above the control has no call in these data; cut-offs in other NCI protocols can differ. Some T/C values carry the count of animals alive at the toxicity check (mostly the fifth day); without a count, all were alive then.
# Test system: L1210 leukemia ip in BDF1 mice, survival T/C
# Test: NCI In Vivo Anticancer Drug Screen. Data for tumor model L1210 Leukemia (intraperitoneal) in B6D2F1 (BDF1) mice
# Conditions: T/C endpoint: mean survival time, higher T/C = longer survival
# [1] = dose: 400.0 mg/kg/injection, schedule: Q01DX001 (ip), vehicle: saline
# [2] = dose: 300.0 mg/kg/injection, schedule: Q01DX001 (ip), vehicle: saline
# [3] = dose: 100.0 mg/kg/injection, schedule: Q01DX001 (ip), vehicle: carboxymethylcellulose (CMC)
# [4] = dose: 200.0 mg/kg/injection, schedule: Q01DX001 (ip), vehicle: carboxymethylcellulose (CMC)
# [5] = dose: 300.0 mg/kg/injection, schedule: Q01DX001 (ip), vehicle: other
# [6] = dose: 200.0 mg/kg/injection, schedule: Q01DX009 (ip), vehicle: Klucel (hydroxypropylcellulose) (HPC)
# [7] = dose: 200.0 mg/kg/injection, schedule: Q01DX001 (ip), vehicle: saline
# [8] = dose: 400.0 mg/kg/injection, schedule: Q04DX002 (ip), vehicle: Klucel (hydroxypropylcellulose) (HPC)
compound,measurement,setting,value
CC(C)(Cl)CCC1=C(Cl)C(=O)c2ccccc2C1=O,survivor count,"dose: 20.0 mg/kg/injection, schedule: Q01DX001 (ip), vehicle: water",1 of 4
same,survivor count,"dose: 40.0 mg/kg/injection, schedule: Q01DX001 (ip), vehicle: water",0 of 4
same,survivor count,"dose: 50.0 mg/kg/injection, schedule: Q01DX001 (ip), vehicle: water",0 of 4
same,survivor count,"dose: 80.0 mg/kg/injection, schedule: Q01DX001 (ip), vehicle: water",0 of 4
same,survivor count,"dose: 100.0 mg/kg/injection, schedule: Q01DX001 (ip), vehicle: water",0 of 4
same,survivor count,"dose: 200.0 mg/kg/injection, schedule: Q01DX001 (ip), vehicle: water",0 of 4
same,survivor count,"dose: 400.0 mg/kg/injection, schedule: Q01DX001 (ip), vehicle: water",0 of 4
Br/C=C/C1=CCCCC1,survivor count,"dose: 400.0 mg/kg/injection, schedule: Q01DX009 (ip), vehicle: acetone",0 of 6
CCCCCCC(=O)N(CCCC)CCCC,survivor count,"dose: 400.0 mg/kg/injection, schedule: Q01DX009 (ip), vehicle: carboxymethylcellulose (CMC)",1 of 3 and 6 of 6
CC/C=C(\C)CC(C)O (stereo not given),survivor count,"dose: 100.0 mg/kg/injection, schedule: Q04DX002 (ip), vehicle: saline with Tween-80",3 of 3
CCCC(O)(CCC)C(=O)O,survivor count,[1],2 of 3
Cc1cccc(C)c1N=C=O,survivor count,"dose: 400.0 mg/kg/injection, schedule: Q01DX009 (ip), vehicle: other",0 of 6
CN=C(NC)c1ccc(NC(=O)c2cc(C(=O)Nc3ccc(C(=NC)NC)cc3)cc([N+](=O)[O-])c2)cc1,survivor count,"dose: 30.0 mg/kg/injection, schedule: Q01DX Z (ip), vehicle: saline",0 of 6 and 2 of 6
same,survivor count,"dose: 60.0 mg/kg/injection, schedule: Q01DX Z (ip), vehicle: saline",0 of 6
same,survivor count,"dose: 120.0 mg/kg/injection, schedule: Q01DX Z (ip), vehicle: saline",0 of 6
CCN(CC)CCCNC(c1ccc(OC)cc1)C(Cl)(Cl)Cl (stereo not given),survivor count,[2],0 of 6
CC[Si](CC)(c1ccccc1)N1CC1,survivor count,[3],2 of 4 and 3 of 4
same,survivor count,[4],0 of 4
same,survivor count,"dose: 400.0 mg/kg/injection, schedule: Q01DX001 (ip), vehicle: carboxymethylcellulose (CMC)",0 of 4
C#CC[N+]1=CN(c2ccc(C)cc2)Cc2cc(C)ccc21,survivor count,"dose: 200.0 mg/kg/injection, schedule: Q01DX009 (ip), vehicle: saline with Tween-80",0 of 6
same,survivor count,"dose: 400.0 mg/kg/injection, schedule: Q04DX003 (ip), vehicle: saline with Tween-80",3 of 6
c1ccc(C(c2ccccc2)c2ccc(C(c3ccccc3)(c3ccccc3)c3ccccc3)cc2)cc1,survivor count,"dose: 175.0 mg/kg/injection, schedule: Q04DX003 (ip), vehicle: Klucel (hydroxypropylcellulose) (HPC)",6 of 6
same,survivor count,"dose: 350.0 mg/kg/injection, schedule: Q04DX003 (ip), vehicle: Klucel (hydroxypropylcellulose) (HPC)",6 of 6
CCCCCc1nc2c(c3c1CCCC3)CCCC2,survivor count,[5],0 of 6
COC(=O)C(=CC(Cl)(Cl)Cl)C(=O)OC,survivor count,"dose: 50.0 mg/kg/injection, schedule: Q01DX009 (ip), vehicle: Klucel (hydroxypropylcellulose) (HPC)",4 of 6
same,survivor count,"dose: 100.0 mg/kg/injection, schedule: Q01DX009 (ip), vehicle: Klucel (hydroxypropylcellulose) (HPC)",0 of 6
same,survivor count,[6],0 of 6
same,survivor count,"dose: 400.0 mg/kg/injection, schedule: Q01DX001 (ip), vehicle: Klucel (hydroxypropylcellulose) (HPC)",0 of 6
O=c1cc(-c2ccc(Cl)cc2)oc(-c2ccc(Cl)cc2)c1,survivor count,[6],6 of 6
same,survivor count,"dose: 400.0 mg/kg/injection, schedule: Q04DX003 (ip), vehicle: Klucel (hydroxypropylcellulose) (HPC)",5 of 6
NCCCCC(=O)NC(CCCCNC(=O)OCc1ccccc1)C(=O)NCCCCC(=O)NC(CCCCNC(=O)OCc1ccccc1)C(=O)NCCCCC(=O)NC(CCCCNC(=O)OCc1ccccc1)C(=O)NCCCCC(=O)NC(CCCCNC(=O)OCc1ccccc1)C(=O)NCCCCC(=O)NC(CCCCNC(=O)OCc1ccccc1)C(=O)O (stereo not given),survivor count,[7],0 of 6
same,survivor count,[1],0 of 6
COC(=O)C1(C)CCCC2c3cc4c(cc3CCC21)C(=O)CC(C)O4 (stereo not given),survivor count,[3],4 of 4
same,survivor count,[4],4 of 4
CCN(CC)CCSC(CO)c1ccccc1 (stereo not given),survivor count,"dose: 300.0 mg/kg/injection, schedule: Q04DX003 (ip), vehicle: Klucel (hydroxypropylcellulose) (HPC)",2 of 6
COc1ccc(/C=C(/C)[N+](=O)[O-])cc1OC,survivor count,[7],4 of 4
O=C1NC(CN2CCCC(O)C2)C(=O)NC1CN1CCCC(O)C1 (stereo not given) (tested in a mixture with another compound),survivor count,"dose: 300.0 mg/kg/injection, schedule: Q01DX009 (ip), vehicle: water",2 of 3
CC1CN1P(=O)(Oc1cccc2ccccc12)N1CC1C (stereo not given),T/C,[1],125 % of control [3 of 4 alive]
Cc1nc(N)[nH]c(=O)c1NC(=O)CCc1ccccc1,survivor count,"dose: 25.0 mg/kg/injection, schedule: Q01DX001 (ip), vehicle: saline with Tween-80",6 of 6
same,survivor count,"dose: 50.0 mg/kg/injection, schedule: Q01DX001 (ip), vehicle: saline with Tween-80",3 of 6
same,survivor count,"dose: 100.0 mg/kg/injection, schedule: Q01DX001 (ip), vehicle: saline with Tween-80",1 of 6 and 2 of 6
same,survivor count,"dose: 200.0 mg/kg/injection, schedule: Q01DX001 (ip), vehicle: saline with Tween-80",0 of 6
same,survivor count,"dose: 400.0 mg/kg/injection, schedule: Q01DX001 (ip), vehicle: saline with Tween-80",0 of 6
[O]=[Sb]([OH])([c]1ccc(Cl)cc1)[c]1ccc(Cl)cc1,survivor count,"dose: 150.0 mg/kg/injection, schedule: Q01DX001 (ip), vehicle: saline",2 of 6
same,survivor count,[2],0 of 6
N#CC(Nc1cc(=O)[nH]c(=O)[nH]1)c1ccccc1 (stereo not given),survivor count,[8],1 of 3
O=c1[nH]cnc2[nH]cc([N+](=O)[O-])c12,survivor count,"dose: 50.0 mg/kg/injection, schedule: Q01DX001 (ip), vehicle: carboxymethylcellulose (CMC)",4 of 4
same,survivor count,[3],4 of 4
CCCCC[CH2][Sn]([CH2]C)([CH2]C)[CH2]C,survivor count,"dose: 400.0 mg/kg/injection, schedule: Q04DX002 (ip), vehicle: saline",0 of 3
CCOC(=O)C(O)(O)C(C)C,T/C,[7],138 % of control
COc1ccc(COC(=O)Nc2cccc(Cl)c2)cc1,survivor count,[8],5 of 6
CCCCCCCCCCCCNC(=O)C[n+]1cccc(C(N)=O)c1,survivor count,"dose: 200.0 mg/kg/injection, schedule: Q04DX003 (ip), vehicle: saline",3 of 6
same,survivor count,"dose: 400.0 mg/kg/injection, schedule: Q04DX003 (ip), vehicle: saline",0 of 6
ClC/C=[CH]/[Sn]([c]1ccccc1)([c]1ccccc1)[c]1ccccc1,survivor count,"dose: 200.0 mg/kg/injection, schedule: Q01DX009 (ip), vehicle: saline",1 of 3
CCCCNC(C)(C)C(SS)c1ccc(Cl)cc1 (stereo not given),survivor count,"dose: 200.0 mg/kg/injection, schedule: Q01DX009 (ip), vehicle: other",5 of 6
CCCC(CCC)NC(CC)COC(=O)c1ccc(N)cc1 (stereo not given),survivor count,"dose: 150.0 mg/kg/injection, schedule: Q01DX001 (ip), vehicle: other",3 of 6
same,survivor count,[5],0 of 6
FC(F)(F)COC(Br)CBr (stereo not given),survivor count,"dose: 75.0 mg/kg/injection, schedule: Q01DX001 (ip), vehicle: carboxymethylcellulose (CMC)",1 of 6
same,survivor count,"dose: 150.0 mg/kg/injection, schedule: Q01DX001 (ip), vehicle: carboxymethylcellulose (CMC)",0 of 6
same,survivor count,"dose: 300.0 mg/kg/injection, schedule: Q01DX001 (ip), vehicle: carboxymethylcellulose (CMC)",0 of 6
